Experimental data published in the supplement of paper PMC12819154, “High-throughput peptide-centric local stability assay extends protein–ligand identification to membrane proteins, tissues and bacteria” (Nature Structural & Molecular Biology, 2025).
The list shows a part of the results. Most values lie at the level of the controls, where differences are scatter.

By UniProt entry, the sequences of proteins in these tests, tags left out. Where a name states a change or a piece, a line headed by the entry shows the natural chain unless it says otherwise.
UniProt P22695: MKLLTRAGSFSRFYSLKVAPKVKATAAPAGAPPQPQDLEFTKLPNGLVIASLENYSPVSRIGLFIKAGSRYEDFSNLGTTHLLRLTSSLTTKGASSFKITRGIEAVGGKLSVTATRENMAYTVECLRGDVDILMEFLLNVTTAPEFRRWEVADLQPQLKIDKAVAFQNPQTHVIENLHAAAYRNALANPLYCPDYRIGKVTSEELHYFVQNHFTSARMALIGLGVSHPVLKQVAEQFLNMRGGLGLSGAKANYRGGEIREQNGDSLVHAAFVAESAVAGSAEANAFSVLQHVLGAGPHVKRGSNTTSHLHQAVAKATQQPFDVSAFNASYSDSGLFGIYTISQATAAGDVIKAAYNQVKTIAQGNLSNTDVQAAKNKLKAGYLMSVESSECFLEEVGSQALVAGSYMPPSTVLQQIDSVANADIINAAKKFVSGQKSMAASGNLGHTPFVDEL
UniProt P18669: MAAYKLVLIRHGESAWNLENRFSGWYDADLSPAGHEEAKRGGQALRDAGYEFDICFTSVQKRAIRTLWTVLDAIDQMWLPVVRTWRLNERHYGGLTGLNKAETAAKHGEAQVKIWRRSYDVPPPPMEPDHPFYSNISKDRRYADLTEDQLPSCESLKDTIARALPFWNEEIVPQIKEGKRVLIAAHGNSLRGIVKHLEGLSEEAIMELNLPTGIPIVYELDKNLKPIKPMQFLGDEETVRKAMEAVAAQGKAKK
UniProt P25685, whole entry: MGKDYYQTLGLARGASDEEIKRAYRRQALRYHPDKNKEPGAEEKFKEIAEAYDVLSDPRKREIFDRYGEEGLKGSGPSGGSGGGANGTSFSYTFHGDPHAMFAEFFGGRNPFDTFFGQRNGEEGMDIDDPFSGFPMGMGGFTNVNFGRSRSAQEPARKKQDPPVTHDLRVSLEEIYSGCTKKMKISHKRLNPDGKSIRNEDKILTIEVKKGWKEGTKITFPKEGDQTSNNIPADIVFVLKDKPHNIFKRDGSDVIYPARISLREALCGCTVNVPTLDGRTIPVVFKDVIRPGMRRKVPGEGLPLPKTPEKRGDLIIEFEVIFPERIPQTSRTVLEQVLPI
UniProt P23921: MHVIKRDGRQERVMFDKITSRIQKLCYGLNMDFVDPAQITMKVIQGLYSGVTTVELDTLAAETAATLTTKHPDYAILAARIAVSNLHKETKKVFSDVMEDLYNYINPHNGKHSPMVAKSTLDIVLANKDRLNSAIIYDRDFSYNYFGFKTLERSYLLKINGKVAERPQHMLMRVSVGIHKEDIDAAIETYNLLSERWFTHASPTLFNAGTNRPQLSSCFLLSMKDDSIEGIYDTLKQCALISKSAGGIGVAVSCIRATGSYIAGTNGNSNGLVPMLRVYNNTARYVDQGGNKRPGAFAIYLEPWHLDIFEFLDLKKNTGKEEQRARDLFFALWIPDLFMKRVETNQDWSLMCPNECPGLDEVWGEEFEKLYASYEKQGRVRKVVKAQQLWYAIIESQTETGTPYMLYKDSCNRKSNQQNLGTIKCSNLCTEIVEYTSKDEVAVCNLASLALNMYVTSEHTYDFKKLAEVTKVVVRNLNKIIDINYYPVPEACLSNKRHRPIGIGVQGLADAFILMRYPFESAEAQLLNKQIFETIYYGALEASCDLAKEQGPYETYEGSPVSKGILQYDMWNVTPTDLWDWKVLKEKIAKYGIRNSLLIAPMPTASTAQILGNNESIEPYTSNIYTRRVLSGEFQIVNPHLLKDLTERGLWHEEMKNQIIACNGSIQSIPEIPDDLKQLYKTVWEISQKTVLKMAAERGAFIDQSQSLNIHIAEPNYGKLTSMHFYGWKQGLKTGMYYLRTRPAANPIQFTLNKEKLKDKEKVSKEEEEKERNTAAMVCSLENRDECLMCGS
UniProt P25440, whole entry, looked up: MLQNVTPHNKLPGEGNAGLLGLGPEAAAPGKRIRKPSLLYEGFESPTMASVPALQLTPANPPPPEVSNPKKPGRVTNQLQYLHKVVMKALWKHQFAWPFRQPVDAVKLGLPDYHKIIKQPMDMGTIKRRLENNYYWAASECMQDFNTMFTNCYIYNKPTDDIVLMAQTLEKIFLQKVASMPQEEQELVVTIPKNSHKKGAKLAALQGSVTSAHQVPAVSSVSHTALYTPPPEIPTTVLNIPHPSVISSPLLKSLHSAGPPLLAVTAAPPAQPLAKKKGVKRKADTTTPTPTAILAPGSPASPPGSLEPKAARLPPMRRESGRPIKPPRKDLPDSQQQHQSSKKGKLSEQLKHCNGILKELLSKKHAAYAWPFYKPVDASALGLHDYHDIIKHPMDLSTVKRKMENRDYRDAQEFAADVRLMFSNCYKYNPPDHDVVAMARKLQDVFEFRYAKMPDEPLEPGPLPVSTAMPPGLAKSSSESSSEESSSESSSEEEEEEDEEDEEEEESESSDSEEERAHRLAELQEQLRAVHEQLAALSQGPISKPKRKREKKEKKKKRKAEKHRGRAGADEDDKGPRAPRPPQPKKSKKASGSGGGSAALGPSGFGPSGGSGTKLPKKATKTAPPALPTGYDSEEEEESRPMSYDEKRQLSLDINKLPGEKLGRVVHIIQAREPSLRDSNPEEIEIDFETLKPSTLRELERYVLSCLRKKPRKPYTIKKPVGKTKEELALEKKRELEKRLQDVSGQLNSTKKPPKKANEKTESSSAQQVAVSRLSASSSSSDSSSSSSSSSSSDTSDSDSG
UniProt P19419: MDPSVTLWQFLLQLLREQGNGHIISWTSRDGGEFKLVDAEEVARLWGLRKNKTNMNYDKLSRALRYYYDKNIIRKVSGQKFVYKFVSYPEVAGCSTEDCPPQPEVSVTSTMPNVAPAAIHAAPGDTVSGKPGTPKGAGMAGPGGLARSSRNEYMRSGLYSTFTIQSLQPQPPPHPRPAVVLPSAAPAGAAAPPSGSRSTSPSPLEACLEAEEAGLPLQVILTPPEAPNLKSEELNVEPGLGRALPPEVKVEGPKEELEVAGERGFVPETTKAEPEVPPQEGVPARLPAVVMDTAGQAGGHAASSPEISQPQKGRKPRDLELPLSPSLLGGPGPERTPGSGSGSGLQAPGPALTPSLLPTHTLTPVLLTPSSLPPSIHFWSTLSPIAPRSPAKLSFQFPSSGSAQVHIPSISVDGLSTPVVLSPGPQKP
UniProt P23769: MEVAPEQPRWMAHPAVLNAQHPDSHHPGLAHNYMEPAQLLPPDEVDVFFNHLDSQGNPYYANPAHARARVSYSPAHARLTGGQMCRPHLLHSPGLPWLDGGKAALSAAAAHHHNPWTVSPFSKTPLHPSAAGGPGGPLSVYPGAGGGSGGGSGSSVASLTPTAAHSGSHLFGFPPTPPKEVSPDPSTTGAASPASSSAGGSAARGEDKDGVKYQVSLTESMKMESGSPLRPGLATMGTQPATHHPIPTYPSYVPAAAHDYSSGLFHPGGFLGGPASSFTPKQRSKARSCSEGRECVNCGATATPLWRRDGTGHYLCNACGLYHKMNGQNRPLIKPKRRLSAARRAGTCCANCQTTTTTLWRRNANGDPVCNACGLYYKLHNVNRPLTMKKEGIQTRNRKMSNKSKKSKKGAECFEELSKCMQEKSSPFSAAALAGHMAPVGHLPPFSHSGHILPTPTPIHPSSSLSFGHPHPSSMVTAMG
UniProt P26038, whole entry: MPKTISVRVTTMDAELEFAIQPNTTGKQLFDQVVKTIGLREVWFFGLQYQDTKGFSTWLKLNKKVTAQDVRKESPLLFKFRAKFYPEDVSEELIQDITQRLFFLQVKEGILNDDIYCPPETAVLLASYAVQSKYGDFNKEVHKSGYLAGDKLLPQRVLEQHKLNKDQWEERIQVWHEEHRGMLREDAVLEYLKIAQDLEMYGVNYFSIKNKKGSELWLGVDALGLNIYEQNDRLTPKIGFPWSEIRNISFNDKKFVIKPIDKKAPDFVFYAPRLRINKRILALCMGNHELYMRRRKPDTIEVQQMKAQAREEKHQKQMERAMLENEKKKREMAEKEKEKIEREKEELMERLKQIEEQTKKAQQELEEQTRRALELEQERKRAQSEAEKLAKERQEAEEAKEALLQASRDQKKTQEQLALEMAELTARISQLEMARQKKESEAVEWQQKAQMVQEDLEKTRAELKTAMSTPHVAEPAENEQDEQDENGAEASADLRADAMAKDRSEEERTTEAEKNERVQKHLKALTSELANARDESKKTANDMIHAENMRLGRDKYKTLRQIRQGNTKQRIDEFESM
UniProt P20226, whole entry: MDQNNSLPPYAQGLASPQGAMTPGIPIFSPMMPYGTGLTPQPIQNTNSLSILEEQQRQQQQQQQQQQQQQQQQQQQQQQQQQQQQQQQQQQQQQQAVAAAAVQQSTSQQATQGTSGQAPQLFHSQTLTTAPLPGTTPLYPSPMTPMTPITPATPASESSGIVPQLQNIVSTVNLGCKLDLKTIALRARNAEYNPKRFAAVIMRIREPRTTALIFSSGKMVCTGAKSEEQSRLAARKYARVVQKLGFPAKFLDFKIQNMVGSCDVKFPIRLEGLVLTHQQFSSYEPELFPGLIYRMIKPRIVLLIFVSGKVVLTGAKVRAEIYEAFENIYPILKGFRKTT

Compound: CN[C@@H]1C[C@H]2O[C@@](C)([C@@H]1OC)n1c3ccccc3c3c4c(c5c6ccccc6n2c5c31)C(=O)NC4 [staurosporine]
Experiment: log2 fold change of tryptic peptide abundance, ligand vs vehicle (limited proteolysis) (log2 ratio); higher = more trypsin-susceptible (destabilized)
Conditions: ligand concentration: 20 uM; sample: K562 cleared lysate; digestion: 4 min, 22 C (HT-PELSA RT4min, Orbitrap Astral)

Target | log2 fold change
UQCRC2 (peptide sequence: AVAFQNPQTHVIENLHAAAYR, peptide start residue: 163) (UniProt P22695) | 0.318
PGAM1 (peptide sequence: HYGGLTGLNK, peptide start residue: 91) (UniProt P18669) | -0.609
DNAJB1 (peptide sequence: EGDQTSNNIPADIVFVLK, peptide start residue: 223) (UniProt P25685) | -0.149
RRM1 (peptide sequence: KVFSDVMEDLYNYINPHNGK, peptide start residue: 92) (UniProt P23921) | 0.187
UniProt P24928 (peptide sequence: QDVIEVIEK, peptide start residue: 711) | -0.813
BRD2 (peptide sequence: AGADEDDKGPR, peptide start residue: 567) (UniProt P25440) | 0.649
ELK1 (peptide sequence: NKTNMNYDKLSR, peptide start residue: 51) (UniProt P19419) | -1.2
RPL10 (peptide sequence: FNADEFEDMVAEKR, peptide start residue: 176) (UniProt P27635) | -0.089
GATA2 (peptide sequence: AALSAAAAHHHNPWTVSPFSK, peptide start residue: 103) (UniProt P23769) | -0.445
MSN (peptide sequence: GMLREDAVLEYLK, peptide start residue: 181) (UniProt P26038) | 0.288
TBP (peptide sequence: AEIYEAFENIYPILK, peptide start residue: 319) (UniProt P20226) | -0.131

Individual results from the list.
GATA2 (peptide sequence: AALSAAAAHHHNPWTVSPFSK, peptide start residue: 103) (UniProt P23769) – log2 fold change: -0.445
UQCRC2 (peptide sequence: AVAFQNPQTHVIENLHAAAYR, peptide start residue: 163) (UniProt P22695) – log2 fold change: 0.318
